Binding data for one substance are collected here from patent US20120156198A1 (Hoffmann-La Roche, published 2012).

The chains behind the UniProt entries cited, without tags or fusion partners. Where a name states a change or a piece, a line headed by the entry shows the natural chain unless it says otherwise.
UniProt Q14116: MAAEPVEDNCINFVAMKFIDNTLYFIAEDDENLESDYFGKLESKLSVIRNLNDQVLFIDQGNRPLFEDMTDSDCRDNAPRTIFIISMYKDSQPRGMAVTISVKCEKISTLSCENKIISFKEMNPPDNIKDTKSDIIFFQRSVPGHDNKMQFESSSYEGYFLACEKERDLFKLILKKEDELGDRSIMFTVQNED

These are yes or no findings as the source states them, for the method shown. Some results given as binding are weak or reduced against the parent protein; the word gives no strength. For some assays here: Sequences can lack the tags named with a protein.

The target in assay [1] is T1, wild type shIL-18Rα:Fc (human) (UniProt Q13478).
T1 sequence: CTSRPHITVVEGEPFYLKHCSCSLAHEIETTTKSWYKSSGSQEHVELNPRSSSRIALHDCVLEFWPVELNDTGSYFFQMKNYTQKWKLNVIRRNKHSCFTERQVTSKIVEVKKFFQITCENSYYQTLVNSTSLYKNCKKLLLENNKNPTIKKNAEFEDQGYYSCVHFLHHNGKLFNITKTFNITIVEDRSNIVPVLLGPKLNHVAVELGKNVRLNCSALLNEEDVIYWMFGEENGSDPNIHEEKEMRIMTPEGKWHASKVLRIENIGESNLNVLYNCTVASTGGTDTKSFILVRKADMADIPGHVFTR
In words: SPR (BIAcore 3000, 25°C), Fc-tagged variant captured, mixture of both proteins at 100 nM.

Assay [2] has as its target cynomolgus IL-18Rα:Fc (cynomolgus; human). The description is as above.

Turning to “IL-18/IL-18Rβ (control): mixture of the natural ligands IL-18 and IL-18Rβ (from UniProt Q14116 37-193; O95256 20-356)”, the binding result in assay [1] and in assay [2] was “binds” each time.
